PubChem BioAssay AID504764, Drosophila RNAi Screening Center | 2011
Purpose: 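Genome-wide screen for regulators of Notch-driven gene expression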 (primary screen). Cell system: Drosophila Kc167 cells. Reagents: long dsRNA against Drosophila genes. Time to read-out: about 5 days (4 days dsRNA, then 24 h after transfection). Conditions: transfection of constitutively active membrane-tethered Notch lacking the extracellular domain, read 24 h later. Detection: 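Light from a Notch-responsive E(spl)m3 luciferase reporter under active Notch, with control-promoter and no-Notch reporter wells to normalise; raw counts from paired wells a and b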. Direction: induced reporter light, run 1, well a and induced reporter light, run 1, well b: higher = more light from the Notch target reporter with active Notch; control promoter light, run 1, well a and control promoter light, run 1, well b: higher = more light from the viral control promoter (cell number, transfection, viability); uninduced reporter light, run 1, well a: higher = more light from the Notch target reporter without active Notch. Active means: 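Wells with low control signal or poorly matching duplicates excluded; duplicates averaged; per source plate, z beyond ±2 for induced/control log2 ratio or beyond ±1.8 for induced/uninduced marks a hit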. Meaning of the calls: active = modifier hit (raised or lowered Notch signal); inactive = not a hit.
The deposit covers about 22,000 reagents; shown is a random part of those with a known target gene and a result. Over the whole deposit, 403 (1.9%) got an active call. 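Unnormalised raw counts per well; ratio z-scores behind the hit calls and whether each hit raises or lowers signal are not deposited.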 A number with no mark means an inactive call. Reagents against one gene are numbered here. Not stated in the record: the amount of reagent.

The first 2 entries, ahead of the listing:
gene	reagent	induced reporter light, run 1, well a	induced reporter light, run 1, well b	control promoter light, run 1, well a	control promoter light, run 1, well b	uninduced reporter light, run 1, well a
Sou	1	21665	19925	32855	18620	1460
RpL7A	1	20725	16850	35680	27580	1045

The list itself, from the first entry:
gene	reagent	induced reporter light, run 1, well a	induced reporter light, run 1, well b	control promoter light, run 1, well a	control promoter light, run 1, well b	uninduced reporter light, run 1, well a
Sou	1	21665	19925	32855	18620	1460
RpL7A	1	20725	16850	35680	27580	1045
CG14757	1	1.87e5	1.53e5	2.50e5	2.52e5	15195
wnd	1	2.26e5	3.14e5	3.66e5	2.31e5	20235
wnd	2	99075	1.41e5	93900	94315	7560
CG43333	1	99060	1.18e5	80005	88720	9925
CG14736	1	88600	1.08e5	1.00e5	76005	14762
js	1	2.10e5 (active)	2.19e5	1.41e5	1.31e5	14938
Rab23	1	92030	96560	87710	96355	7185
CG10602	1	1.66e5	1.85e5	1.74e5	1.63e5	13515
CG6654	1	1.16e5	1.14e5	1.10e5	1.05e5	11725
CG3770	1	2.42e5	2.28e5	1.85e5	1.92e5	18800
mh	1	92445	76490	87130	90485	9690
Vha68-1	1	1.71e5	1.74e5	1.75e5	1.86e5	15125
rno	1	95565	87865	1.28e5	1.39e5	5455
CG4053	1	2.41e5	2.67e5	2.00e5	2.10e5	18960
Prp39	1	41740	46020	43550	34420	2520
Or46a	1	2.46e5	2.06e5	2.71e5	2.64e5	20325
Or46a	2	1.90e5	1.93e5	2.49e5	2.58e5	16445
Ku80	1	83035	1.02e5	95385	89155	7182
